{"source": "PubChem BioAssay AID1259308 (NCATS, 2017)", "screen": "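Knock-downs that increase output of a recombinant reporter protein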 (primary screen)", "cells": "human HEK293 embryonic kidney cells stably expressing firefly luciferase (HEK-CMV-Luc2-Hygro)", "knock-down reagent": "single siRNA against human genes, 0.8 pmol siRNA per well", "timing": "72 h", "detection": "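Reporter luminescence and viable-cell signal on separate replicate plates, given as percent of non-targeting control and median/MAD z-scores, plus per-cell luciferase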", "reading the numbers": "total luciferase, z-score: higher = more reporter protein produced", "hit rule": "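An siRNA counts as active if its total luciferase robust z-score exceeds 3; genes with two or more such siRNAs out of three were retested with fresh siRNAs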", "calls": "active = raised luciferase; inactive = no rise", "note": "This is an unselected part of about 59,000 deposited reagents. About 1,510 of them (2.6%) count as active. 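Calls use total luciferase alone and ignore viability, so some active siRNAs may act by altering cell number.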 Unmarked entries are inactive. Not all columns of the deposit are shown. No sequences are given here."}
{"gene": "BTBD18 (BTB domain containing 18)", "PubChem SID": "SID160768861", "total luciferase, z-score": 0.346}
{"gene": "BTBD18 (BTB domain containing 18)", "PubChem SID": "SID160768862", "total luciferase, z-score": 2.95}
{"gene": "BTBD18 (BTB domain containing 18)", "PubChem SID": "SID160768863", "total luciferase, z-score": -1.21}
{"gene": "ZNF571 (zinc finger protein 571)", "PubChem SID": "SID160731360", "total luciferase, z-score": -0.175}
{"gene": "ZNF571 (zinc finger protein 571)", "PubChem SID": "SID160740471", "total luciferase, z-score": -0.145}
{"gene": "ZNF571 (zinc finger protein 571)", "PubChem SID": "SID160740472", "total luciferase, z-score": 1.42}
{"gene": "FABP2 (fatty acid binding protein 2)", "PubChem SID": "SID160763377", "total luciferase, z-score": -0.974}
{"gene": "FABP2 (fatty acid binding protein 2)", "PubChem SID": "SID160763388", "total luciferase, z-score": -0.751}
{"gene": "FABP2 (fatty acid binding protein 2)", "PubChem SID": "SID160763399", "total luciferase, z-score": -0.404}
{"gene": "CCDC141 (coiled-coil domain containing 141)", "PubChem SID": "SID160763477", "total luciferase, z-score": 0.18}
{"gene": "CCDC141 (coiled-coil domain containing 141)", "PubChem SID": "SID160763478", "total luciferase, z-score": 0.853}
{"gene": "CCDC141 (coiled-coil domain containing 141)", "PubChem SID": "SID160763479", "total luciferase, z-score": -0.446}
{"gene": "CDK18 (cyclin dependent kinase 18)", "PubChem SID": "SID160713958", "total luciferase, z-score": 0.103}
{"gene": "CDK18 (cyclin dependent kinase 18)", "PubChem SID": "SID160713959", "total luciferase, z-score": 0.228}
{"gene": "CDK18 (cyclin dependent kinase 18)", "PubChem SID": "SID160713960", "total luciferase, z-score": "3.22 (active)"}
{"gene": "PLEKHG6 (pleckstrin homology and RhoGEF domain containing G6)", "PubChem SID": "SID160743208", "total luciferase, z-score": -1}
{"gene": "PLEKHG6 (pleckstrin homology and RhoGEF domain containing G6)", "PubChem SID": "SID160743209", "total luciferase, z-score": 2.35}
{"gene": "PLEKHG6 (pleckstrin homology and RhoGEF domain containing G6)", "PubChem SID": "SID160743210", "total luciferase, z-score": 1.47}

Next part (3 carried over from the part before).
{"gene": "PLEKHG6 (pleckstrin homology and RhoGEF domain containing G6)", "PubChem SID": "SID160743208", "total luciferase, z-score": -1}
{"gene": "PLEKHG6 (pleckstrin homology and RhoGEF domain containing G6)", "PubChem SID": "SID160743209", "total luciferase, z-score": 2.35}
{"gene": "PLEKHG6 (pleckstrin homology and RhoGEF domain containing G6)", "PubChem SID": "SID160743210", "total luciferase, z-score": 1.47}
{"gene": "BRSK2 (BR serine/threonine kinase 2)", "PubChem SID": "SID160721289", "total luciferase, z-score": -0.0704}
{"gene": "BRSK2 (BR serine/threonine kinase 2)", "PubChem SID": "SID160721290", "total luciferase, z-score": -0.768}
{"gene": "BRSK2 (BR serine/threonine kinase 2)", "PubChem SID": "SID160721291", "total luciferase, z-score": 0.458}
{"gene": "COLEC12 (collectin subfamily member 12)", "PubChem SID": "SID160750677", "total luciferase, z-score": -1.24}
{"gene": "COLEC12 (collectin subfamily member 12)", "PubChem SID": "SID160750678", "total luciferase, z-score": 1.15}
{"gene": "COLEC12 (collectin subfamily member 12)", "PubChem SID": "SID160750679", "total luciferase, z-score": 0.254}
{"gene": "DHRS7 (dehydrogenase/reductase 7)", "PubChem SID": "SID160741124", "total luciferase, z-score": 0.401}
{"gene": "DHRS7 (dehydrogenase/reductase 7)", "PubChem SID": "SID160741125", "total luciferase, z-score": -0.148}
{"gene": "DHRS7 (dehydrogenase/reductase 7)", "PubChem SID": "SID160741126", "total luciferase, z-score": 0.553}
{"gene": "LINGO4 (leucine rich repeat and Ig domain containing 4)", "PubChem SID": "SID160764219", "total luciferase, z-score": 0.972}
{"gene": "LINGO4 (leucine rich repeat and Ig domain containing 4)", "PubChem SID": "SID160764221", "total luciferase, z-score": -1.3}
{"gene": "LINGO4 (leucine rich repeat and Ig domain containing 4)", "PubChem SID": "SID160764222", "total luciferase, z-score": -0.0855}
{"gene": "AQP1 (aquaporin 1 (Colton blood group))", "PubChem SID": "SID160719136", "total luciferase, z-score": -0.633}
{"gene": "AQP1 (aquaporin 1 (Colton blood group))", "PubChem SID": "SID160719146", "total luciferase, z-score": 0.344}
{"gene": "AQP1 (aquaporin 1 (Colton blood group))", "PubChem SID": "SID160719157", "total luciferase, z-score": 2.14}
